This note sets out measurements from PMC7429352.

Protein sequences, listed by entry. Tags and fused reporters are not part of them.
UniProt Q5VV67: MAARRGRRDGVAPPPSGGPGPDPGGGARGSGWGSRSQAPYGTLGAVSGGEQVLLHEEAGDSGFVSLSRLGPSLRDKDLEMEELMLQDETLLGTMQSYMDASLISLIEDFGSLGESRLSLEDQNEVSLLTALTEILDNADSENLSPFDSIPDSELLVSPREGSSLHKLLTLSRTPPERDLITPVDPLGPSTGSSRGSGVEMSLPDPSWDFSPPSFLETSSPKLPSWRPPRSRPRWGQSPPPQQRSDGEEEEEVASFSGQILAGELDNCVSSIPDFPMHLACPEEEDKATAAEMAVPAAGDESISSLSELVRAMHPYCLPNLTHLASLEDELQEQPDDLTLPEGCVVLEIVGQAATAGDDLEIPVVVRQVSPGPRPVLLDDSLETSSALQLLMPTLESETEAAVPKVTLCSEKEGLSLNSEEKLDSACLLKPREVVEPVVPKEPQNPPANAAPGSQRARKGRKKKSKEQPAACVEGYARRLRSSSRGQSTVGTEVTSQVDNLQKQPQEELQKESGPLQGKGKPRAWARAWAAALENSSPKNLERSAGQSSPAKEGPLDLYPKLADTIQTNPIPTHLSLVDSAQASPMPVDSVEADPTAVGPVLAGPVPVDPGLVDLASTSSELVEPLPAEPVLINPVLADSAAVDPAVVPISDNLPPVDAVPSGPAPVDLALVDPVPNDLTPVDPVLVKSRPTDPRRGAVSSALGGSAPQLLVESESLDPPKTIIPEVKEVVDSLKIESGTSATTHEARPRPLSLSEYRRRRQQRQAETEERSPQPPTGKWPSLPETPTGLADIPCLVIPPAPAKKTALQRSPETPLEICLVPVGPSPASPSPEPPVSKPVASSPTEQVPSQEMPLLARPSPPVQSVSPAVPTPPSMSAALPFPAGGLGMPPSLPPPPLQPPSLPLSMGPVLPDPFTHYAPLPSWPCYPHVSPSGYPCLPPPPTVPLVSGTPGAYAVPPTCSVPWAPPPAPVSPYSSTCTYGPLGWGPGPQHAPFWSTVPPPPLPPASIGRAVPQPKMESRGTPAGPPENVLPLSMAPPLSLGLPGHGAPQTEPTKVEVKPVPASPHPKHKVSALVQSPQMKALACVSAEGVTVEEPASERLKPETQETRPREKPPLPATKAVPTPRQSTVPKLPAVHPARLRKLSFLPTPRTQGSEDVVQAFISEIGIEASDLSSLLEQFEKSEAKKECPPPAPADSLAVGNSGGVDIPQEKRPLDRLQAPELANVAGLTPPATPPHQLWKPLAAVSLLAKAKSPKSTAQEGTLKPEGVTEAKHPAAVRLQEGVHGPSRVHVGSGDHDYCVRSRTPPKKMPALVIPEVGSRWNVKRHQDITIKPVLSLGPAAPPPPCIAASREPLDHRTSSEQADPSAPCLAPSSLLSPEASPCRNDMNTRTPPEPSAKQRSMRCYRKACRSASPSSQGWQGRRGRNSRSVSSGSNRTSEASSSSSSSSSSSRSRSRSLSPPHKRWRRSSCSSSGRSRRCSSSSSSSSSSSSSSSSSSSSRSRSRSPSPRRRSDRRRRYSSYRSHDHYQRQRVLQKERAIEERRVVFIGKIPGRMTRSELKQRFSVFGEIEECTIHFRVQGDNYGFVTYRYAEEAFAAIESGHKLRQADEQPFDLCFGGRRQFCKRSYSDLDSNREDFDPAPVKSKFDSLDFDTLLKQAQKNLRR
UniProt P42224: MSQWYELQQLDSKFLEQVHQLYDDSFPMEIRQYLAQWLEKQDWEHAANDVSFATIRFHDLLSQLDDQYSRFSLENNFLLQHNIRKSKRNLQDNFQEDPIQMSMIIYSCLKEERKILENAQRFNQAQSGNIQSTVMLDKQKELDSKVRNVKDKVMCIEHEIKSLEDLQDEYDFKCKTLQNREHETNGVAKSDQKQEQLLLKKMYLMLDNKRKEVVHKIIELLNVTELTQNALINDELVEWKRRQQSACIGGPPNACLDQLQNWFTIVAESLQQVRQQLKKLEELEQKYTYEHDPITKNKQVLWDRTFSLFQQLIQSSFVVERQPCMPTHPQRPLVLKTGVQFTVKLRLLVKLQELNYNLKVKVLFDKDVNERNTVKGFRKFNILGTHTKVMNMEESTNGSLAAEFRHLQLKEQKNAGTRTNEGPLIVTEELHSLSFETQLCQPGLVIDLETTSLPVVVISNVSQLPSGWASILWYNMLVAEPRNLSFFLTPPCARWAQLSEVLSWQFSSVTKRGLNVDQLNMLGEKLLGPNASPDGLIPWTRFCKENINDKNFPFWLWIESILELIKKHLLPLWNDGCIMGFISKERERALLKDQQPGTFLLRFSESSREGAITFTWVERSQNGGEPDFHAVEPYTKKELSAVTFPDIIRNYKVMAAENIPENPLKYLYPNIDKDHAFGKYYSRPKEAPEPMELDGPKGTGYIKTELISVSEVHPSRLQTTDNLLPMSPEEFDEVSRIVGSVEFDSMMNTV

This assay deals with PGC1α-Related Coactivator (PRC) with N-terminal Ha and C-terminal Flag tags (PRC-pcDNA3) (UniProt Q5VV67). As to the kind of experiment: co-IP; PRC immunoprecipitated (ANTI-FLAG M2 Affinity Gel) from HepG2 cells overexpressing PRC for 48 h; blot probed with indicated antibodies.

Results are given in words; binding and its absence hold for the method and conditions named. Binding seen in cells or lysates may run through a third protein. Some binding calls cover weakened binding; strength is not graded here.

With “Signal Transducer and Activator of Transcription 1 (STAT1) (from UniProt P42224 1-750)”, the binding result is “binds”.
